Reference: the supplement of paper PMC11732987, “Enantioselective OTUD7B fragment discovery through chemoproteomics screening and high-throughput optimisation” (Communications Chemistry, 2025)
The other results are listed elsewhere or left out. The data scatter; read single values as rough.

By UniProt entry, the sequences of proteins in these tests, tags left out. Where a name states a change or a piece, a line headed by the entry shows the natural chain unless it says otherwise. Residues count along the entry.
UniProt Q9BUL5: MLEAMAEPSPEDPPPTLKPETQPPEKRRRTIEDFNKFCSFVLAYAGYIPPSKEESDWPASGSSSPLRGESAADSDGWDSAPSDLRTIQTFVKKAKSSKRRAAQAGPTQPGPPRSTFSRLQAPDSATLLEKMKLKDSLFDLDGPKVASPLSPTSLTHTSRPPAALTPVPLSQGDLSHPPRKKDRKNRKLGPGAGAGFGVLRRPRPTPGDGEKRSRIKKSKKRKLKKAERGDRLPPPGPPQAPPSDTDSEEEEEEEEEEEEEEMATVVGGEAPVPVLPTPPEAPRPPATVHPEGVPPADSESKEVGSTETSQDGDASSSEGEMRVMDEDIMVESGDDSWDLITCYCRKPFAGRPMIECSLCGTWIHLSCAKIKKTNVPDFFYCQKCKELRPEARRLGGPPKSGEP
UniProt Q6IQ23: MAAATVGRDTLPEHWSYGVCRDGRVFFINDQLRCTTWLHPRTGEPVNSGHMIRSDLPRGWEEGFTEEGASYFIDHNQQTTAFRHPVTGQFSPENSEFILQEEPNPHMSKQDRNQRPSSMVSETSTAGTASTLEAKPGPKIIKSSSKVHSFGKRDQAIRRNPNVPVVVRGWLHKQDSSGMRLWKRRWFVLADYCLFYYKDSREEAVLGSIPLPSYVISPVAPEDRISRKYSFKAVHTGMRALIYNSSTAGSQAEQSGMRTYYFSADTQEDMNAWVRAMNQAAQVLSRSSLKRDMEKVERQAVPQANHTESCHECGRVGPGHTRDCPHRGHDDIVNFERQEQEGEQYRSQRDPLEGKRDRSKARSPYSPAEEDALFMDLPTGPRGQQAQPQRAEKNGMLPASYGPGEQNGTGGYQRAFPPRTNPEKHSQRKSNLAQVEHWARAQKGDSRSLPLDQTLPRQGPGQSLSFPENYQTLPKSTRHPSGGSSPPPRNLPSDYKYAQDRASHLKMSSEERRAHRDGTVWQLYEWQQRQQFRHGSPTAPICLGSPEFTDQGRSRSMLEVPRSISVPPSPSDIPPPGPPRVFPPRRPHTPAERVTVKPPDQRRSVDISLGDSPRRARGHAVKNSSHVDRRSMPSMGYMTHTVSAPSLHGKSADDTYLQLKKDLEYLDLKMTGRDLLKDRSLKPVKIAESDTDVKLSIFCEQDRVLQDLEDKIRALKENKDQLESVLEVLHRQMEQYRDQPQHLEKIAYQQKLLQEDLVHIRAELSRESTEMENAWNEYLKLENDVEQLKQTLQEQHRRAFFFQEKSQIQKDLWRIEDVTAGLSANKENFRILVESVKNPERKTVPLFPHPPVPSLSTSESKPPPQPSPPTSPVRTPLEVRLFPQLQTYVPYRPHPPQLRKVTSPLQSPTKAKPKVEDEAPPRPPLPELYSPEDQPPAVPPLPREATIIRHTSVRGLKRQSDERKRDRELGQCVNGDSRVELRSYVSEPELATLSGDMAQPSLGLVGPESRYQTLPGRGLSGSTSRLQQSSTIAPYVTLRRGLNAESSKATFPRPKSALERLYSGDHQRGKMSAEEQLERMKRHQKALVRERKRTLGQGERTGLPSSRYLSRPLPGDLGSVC
UniProt P42356, 8-28: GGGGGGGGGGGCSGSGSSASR
UniProt O00750, 418-438: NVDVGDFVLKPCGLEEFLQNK
UniProt P29590: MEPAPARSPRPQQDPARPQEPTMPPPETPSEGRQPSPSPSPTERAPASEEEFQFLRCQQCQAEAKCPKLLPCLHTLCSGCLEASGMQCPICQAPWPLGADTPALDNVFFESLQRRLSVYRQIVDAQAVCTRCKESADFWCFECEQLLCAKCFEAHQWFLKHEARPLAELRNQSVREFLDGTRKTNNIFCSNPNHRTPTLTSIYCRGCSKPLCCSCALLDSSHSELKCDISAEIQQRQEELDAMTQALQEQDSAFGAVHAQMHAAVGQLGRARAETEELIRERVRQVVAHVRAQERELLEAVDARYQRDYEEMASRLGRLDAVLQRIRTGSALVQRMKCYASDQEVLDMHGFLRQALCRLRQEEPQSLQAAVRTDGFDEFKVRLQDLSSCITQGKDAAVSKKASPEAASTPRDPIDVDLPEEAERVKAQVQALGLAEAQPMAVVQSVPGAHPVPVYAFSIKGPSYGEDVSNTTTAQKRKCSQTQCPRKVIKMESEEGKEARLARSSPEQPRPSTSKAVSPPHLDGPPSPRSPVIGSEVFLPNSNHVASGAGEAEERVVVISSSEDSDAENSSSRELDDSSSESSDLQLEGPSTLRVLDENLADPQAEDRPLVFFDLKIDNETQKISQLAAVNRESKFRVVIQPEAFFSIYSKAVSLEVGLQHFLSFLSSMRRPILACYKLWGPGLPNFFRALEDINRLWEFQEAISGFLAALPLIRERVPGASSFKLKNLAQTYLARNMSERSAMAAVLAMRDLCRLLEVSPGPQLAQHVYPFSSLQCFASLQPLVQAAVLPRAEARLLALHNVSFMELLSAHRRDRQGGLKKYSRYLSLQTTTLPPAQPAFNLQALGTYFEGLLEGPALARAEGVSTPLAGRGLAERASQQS
UniProt P09884, 1171-1191: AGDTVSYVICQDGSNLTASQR
UniProt Q9Y2I7: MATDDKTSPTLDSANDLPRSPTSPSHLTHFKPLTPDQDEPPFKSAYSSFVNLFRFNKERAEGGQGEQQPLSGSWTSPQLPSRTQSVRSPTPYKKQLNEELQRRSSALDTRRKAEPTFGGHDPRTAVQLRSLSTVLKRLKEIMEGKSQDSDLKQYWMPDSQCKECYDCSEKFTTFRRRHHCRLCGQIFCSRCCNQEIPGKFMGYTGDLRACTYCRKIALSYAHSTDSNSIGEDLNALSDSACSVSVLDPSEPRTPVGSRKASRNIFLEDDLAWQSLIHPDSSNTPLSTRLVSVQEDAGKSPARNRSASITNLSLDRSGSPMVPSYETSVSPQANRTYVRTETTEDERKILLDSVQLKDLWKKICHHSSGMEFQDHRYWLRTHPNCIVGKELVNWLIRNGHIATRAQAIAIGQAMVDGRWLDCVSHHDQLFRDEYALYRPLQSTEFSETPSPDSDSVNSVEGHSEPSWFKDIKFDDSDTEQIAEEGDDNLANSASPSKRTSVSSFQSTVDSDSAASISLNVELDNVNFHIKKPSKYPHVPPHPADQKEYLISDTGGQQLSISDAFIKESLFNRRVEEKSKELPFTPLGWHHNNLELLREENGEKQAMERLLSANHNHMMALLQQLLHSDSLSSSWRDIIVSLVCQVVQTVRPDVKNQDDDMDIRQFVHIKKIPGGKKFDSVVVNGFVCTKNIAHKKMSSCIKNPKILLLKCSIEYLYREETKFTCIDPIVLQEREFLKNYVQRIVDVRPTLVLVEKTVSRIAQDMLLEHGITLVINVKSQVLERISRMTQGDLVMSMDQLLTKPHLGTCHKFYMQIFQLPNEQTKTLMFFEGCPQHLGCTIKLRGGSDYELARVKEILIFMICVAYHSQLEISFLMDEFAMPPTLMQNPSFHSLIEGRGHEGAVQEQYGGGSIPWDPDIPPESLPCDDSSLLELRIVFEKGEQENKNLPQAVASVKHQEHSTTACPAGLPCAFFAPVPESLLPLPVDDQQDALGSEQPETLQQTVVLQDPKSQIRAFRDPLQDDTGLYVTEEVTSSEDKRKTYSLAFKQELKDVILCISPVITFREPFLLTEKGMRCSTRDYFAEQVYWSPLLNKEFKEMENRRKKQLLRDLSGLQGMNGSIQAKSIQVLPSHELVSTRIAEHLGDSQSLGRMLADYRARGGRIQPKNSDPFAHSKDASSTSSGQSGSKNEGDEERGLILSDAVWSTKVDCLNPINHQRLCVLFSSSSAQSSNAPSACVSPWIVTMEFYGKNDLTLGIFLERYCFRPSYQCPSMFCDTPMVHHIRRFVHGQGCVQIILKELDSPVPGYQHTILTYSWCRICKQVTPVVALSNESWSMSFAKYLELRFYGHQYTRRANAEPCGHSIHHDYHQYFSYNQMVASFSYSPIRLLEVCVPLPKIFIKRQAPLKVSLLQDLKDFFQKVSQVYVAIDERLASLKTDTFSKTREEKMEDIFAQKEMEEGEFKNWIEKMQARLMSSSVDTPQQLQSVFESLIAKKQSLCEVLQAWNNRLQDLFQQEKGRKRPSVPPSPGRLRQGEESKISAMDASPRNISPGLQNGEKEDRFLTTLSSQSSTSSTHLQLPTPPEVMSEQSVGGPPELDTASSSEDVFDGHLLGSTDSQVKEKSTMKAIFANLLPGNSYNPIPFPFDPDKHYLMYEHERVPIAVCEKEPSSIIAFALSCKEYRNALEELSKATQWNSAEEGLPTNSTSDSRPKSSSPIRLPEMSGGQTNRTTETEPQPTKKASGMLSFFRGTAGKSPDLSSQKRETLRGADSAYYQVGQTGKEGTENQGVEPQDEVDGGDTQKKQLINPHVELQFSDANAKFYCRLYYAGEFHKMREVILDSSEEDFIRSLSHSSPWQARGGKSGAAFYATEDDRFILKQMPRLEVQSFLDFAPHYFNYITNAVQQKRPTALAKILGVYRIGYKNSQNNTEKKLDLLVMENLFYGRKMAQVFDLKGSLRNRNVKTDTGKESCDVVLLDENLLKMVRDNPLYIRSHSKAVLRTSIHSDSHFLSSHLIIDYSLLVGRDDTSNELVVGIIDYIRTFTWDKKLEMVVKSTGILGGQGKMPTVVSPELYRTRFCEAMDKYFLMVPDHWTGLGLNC
UniProt Q02809: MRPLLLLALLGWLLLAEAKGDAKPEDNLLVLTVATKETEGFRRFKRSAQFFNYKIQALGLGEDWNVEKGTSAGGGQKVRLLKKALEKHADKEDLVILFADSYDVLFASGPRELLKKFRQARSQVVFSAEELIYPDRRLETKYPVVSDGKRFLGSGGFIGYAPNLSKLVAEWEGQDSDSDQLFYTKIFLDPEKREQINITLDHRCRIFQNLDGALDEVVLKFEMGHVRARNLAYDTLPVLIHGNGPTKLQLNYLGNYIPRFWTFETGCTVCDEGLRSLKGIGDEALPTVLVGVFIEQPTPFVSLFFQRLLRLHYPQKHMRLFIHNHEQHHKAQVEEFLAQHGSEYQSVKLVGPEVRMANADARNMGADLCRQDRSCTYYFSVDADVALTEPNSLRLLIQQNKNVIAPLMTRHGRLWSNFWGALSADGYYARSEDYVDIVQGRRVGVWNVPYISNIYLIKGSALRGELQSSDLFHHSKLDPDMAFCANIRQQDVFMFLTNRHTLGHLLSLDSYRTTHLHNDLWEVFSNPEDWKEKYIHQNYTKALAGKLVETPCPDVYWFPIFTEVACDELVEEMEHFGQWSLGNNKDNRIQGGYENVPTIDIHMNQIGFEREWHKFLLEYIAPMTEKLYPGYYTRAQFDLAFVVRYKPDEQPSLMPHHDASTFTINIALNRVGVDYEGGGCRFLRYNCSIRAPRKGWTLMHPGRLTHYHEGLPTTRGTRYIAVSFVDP
UniProt Q93100: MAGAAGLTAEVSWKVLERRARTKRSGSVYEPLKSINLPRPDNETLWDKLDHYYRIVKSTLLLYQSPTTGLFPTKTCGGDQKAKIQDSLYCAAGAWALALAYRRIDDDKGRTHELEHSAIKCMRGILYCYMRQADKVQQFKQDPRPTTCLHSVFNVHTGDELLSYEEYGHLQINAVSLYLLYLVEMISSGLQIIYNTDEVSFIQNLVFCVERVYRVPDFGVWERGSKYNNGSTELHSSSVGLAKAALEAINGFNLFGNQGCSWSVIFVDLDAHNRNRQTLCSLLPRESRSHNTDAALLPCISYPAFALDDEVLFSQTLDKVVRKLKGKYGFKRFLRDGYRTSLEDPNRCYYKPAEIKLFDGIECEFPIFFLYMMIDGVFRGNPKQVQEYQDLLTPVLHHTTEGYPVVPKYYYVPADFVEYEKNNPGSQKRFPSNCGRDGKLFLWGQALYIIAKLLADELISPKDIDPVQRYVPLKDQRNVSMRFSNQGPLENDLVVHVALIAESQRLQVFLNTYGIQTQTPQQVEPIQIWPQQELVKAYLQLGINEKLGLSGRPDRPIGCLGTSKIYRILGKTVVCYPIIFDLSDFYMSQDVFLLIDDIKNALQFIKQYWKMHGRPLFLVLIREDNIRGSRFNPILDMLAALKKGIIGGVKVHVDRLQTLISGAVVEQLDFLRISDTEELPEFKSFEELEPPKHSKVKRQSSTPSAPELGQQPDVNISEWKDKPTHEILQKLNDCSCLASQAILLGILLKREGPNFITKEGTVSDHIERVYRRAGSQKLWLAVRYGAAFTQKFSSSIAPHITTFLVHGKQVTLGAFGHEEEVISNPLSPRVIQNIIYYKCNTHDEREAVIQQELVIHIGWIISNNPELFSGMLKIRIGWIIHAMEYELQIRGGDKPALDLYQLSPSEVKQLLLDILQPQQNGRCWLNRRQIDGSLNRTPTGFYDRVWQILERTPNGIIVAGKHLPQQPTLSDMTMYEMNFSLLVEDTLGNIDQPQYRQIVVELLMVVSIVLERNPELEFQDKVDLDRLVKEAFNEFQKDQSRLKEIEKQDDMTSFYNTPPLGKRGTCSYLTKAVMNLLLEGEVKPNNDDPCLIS
UniProt O75928, 444-464: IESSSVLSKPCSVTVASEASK
UniProt Q14442: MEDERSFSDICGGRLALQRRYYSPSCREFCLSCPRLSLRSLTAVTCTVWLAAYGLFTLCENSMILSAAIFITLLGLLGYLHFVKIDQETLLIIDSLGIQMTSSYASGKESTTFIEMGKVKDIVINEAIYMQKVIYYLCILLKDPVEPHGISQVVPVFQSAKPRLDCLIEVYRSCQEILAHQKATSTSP

compound: ClCC(=O)N[C@@H]1CCCc2ccccc12; assay: log2 mean competition ratio of IA-DTB cysteine labelling (DMSO/compound) (log2 ratio); higher = stronger cysteine engagement by compound; conditions: 50 µM; treatment time: 4 h; cell line lysate: HEK293T
Procedure: (§1)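 IA-DTB competitive cysteine chemoproteomics in HEK293T RIPA lysate. Lysates were treated with compound 29 or 30 at 50 or 200 µM for 4 h, then IA-DTB (500 µM, 1 h), trypsin-digested, NeutrAvidin-enriched and analysed by diaPASEF. Competition ratio = intensity DMSO / intensity compound (n=4 treated, n=64 DMSO); binding: mean log2 CR ≥ 1 and p ≤ 0.05 plus QC filters. Target is the cysteine site.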

Row | Target | log2 mean competition ratio
1 | PLAA C193 (UniProt Q9Y263) | -0.0263
2 | PHF23 C381 (UniProt Q9BUL5) | -0.234
3 | POLK C681 (UniProt Q9UBT6) | 0.109
4 | PLEKHA7 C972 (UniProt Q6IQ23) | -0.195
5 | PITX2 C152 | -0.0421
6 | PI4KA C19 (UniProt P42356) | -0.235
7 | PIK3C2B C429 (UniProt O00750) | 0.536
8 | POLR1A C746 (UniProt O95602) | -0.392

same assay, conditions: 200 µM; treatment time: 4 h; cell line lysate: HEK293T

Row | Target | log2 mean competition ratio
9 | PHF5A C75 (UniProt Q7RTV0) | -0.394
10 | POGZ C1267 (UniProt Q7Z3K3) | -0.000408
11 | PML C204 (UniProt P29590) | 0.473
12 | POLR1A C1304 (UniProt O95602) | -0.268
13 | PIK3R2 C50 (UniProt O00459) | 0.25
14 | PHKG2 C188 (UniProt P15735) | -0.0341
15 | POLR1F C47 | 0.282
16 | POLA1 C1180 (UniProt P09884) | 0.0551
17 | PMPCB C419 (UniProt O75439) | 0.0743
18 | POLR2A C1159 | 0.0409
19 | PIKFYVE C1970 (UniProt Q9Y2I7) | 0.215
20 | PKN2 C338 (UniProt Q16513) | 0.0559
21 | PKM C358 | -0.00788
22 | PLOD1 C680 (UniProt Q02809) | 0.0838
23 | POLE C747 (UniProt Q07864) | -0.061
24 | PMS1 C243 (UniProt P54277) | 0.0526
25 | PLEKHH2 C257 (UniProt E5RGK1) | 0.00576
26 | PLAA C631 (UniProt Q9Y263) | -0.107
27 | PHKB C76 (UniProt Q93100) | 0.207

Row | Target | log2 mean competition ratio
28 | PIAS2 C454 (UniProt O75928) | -0.0689
29 | PLAT C419 | 0.314
30 | POLM C222 | 0.105
31 | PITRM1 C780 (UniProt Q5JRX3) | 0.0125
32 | PKM C49 | -0.274
33 | PHYH C205 (UniProt O14832) | -0.00965
34 | PIAS2 C425 (UniProt O75928) | 0.00309
35 | PI4KB C435 (UniProt Q9UBF8) | -0.0754
36 | PM20D2 C30 (UniProt Q8IYS1) | 0.177
37 | PIGH C11 (UniProt Q14442) | 0.12
38 | PLAA C193 (UniProt Q9Y263) | -0.314
39 | PHF23 C381 (UniProt Q9BUL5) | -0.186
40 | POLK C681 (UniProt Q9UBT6) | -0.33
41 | PLEKHA7 C972 (UniProt Q6IQ23) | -0.0331
42 | PITX2 C152 | 0.282
43 | PI4KA C19 (UniProt P42356) | 0.231
44 | PIK3C2B C429 (UniProt O00750) | 0.00281
45 | POLR1A C746 (UniProt O95602) | -0.19

compound: ClCC(=O)N[C@H]1CCCc2ccccc12; assay: as above; conditions: 50 µM; treatment time: 4 h; cell line lysate: HEK293T
Procedure: as §1

Row | Target | log2 mean competition ratio
46 | PHF5A C75 (UniProt Q7RTV0) | 0.442
47 | POGZ C1267 (UniProt Q7Z3K3) | 0.638
48 | PML C204 (UniProt P29590) | 0.17
49 | POLR1A C1304 (UniProt O95602) | -0.0766
50 | PIK3R2 C50 (UniProt O00459) | 0.681
51 | PHKG2 C188 (UniProt P15735) | -0.15
52 | POLR1F C47 | -0.0319
53 | POLA1 C1180 (UniProt P09884) | -0.0234
54 | PMPCB C419 (UniProt O75439) | 0.0395
55 | POLR2A C1159 | -0.196
56 | PIKFYVE C1970 (UniProt Q9Y2I7) | -0.671
57 | PKN2 C338 (UniProt Q16513) | -0.0174
58 | PKM C358 | -0.214
59 | PLOD1 C680 (UniProt Q02809) | -0.078
60 | POLE C747 (UniProt Q07864) | 0.278
61 | PMS1 C243 (UniProt P54277) | -0.431
62 | PLEKHH2 C257 (UniProt E5RGK1) | -0.107
63 | PLAA C631 (UniProt Q9Y263) | -0.0999
64 | PHKB C76 (UniProt Q93100) | 0.455

Row | Target | log2 mean competition ratio
65 | PIAS2 C454 (UniProt O75928) | -0.508
66 | PLAT C419 | -0.0271
67 | POLM C222 | -0.252
68 | PITRM1 C780 (UniProt Q5JRX3) | 0.39
69 | PKM C49 | -0.0945
70 | PHYH C205 (UniProt O14832) | -0.477
71 | PIAS2 C425 (UniProt O75928) | -0.329
72 | PI4KB C435 (UniProt Q9UBF8) | -0.124
73 | PM20D2 C30 (UniProt Q8IYS1) | -0.058
74 | PIGH C11 (UniProt Q14442) | 0.0828
75 | PLAA C193 (UniProt Q9Y263) | 0.0928
76 | PHF23 C381 (UniProt Q9BUL5) | -0.189
77 | POLK C681 (UniProt Q9UBT6) | -0.0063
78 | PLEKHA7 C972 (UniProt Q6IQ23) | -0.0951
79 | PITX2 C152 | 0.0931
80 | PI4KA C19 (UniProt P42356) | -0.422
81 | PIK3C2B C429 (UniProt O00750) | 0.0439
82 | POLR1A C746 (UniProt O95602) | -0.498

same assay, conditions: 200 µM; treatment time: 4 h; cell line lysate: HEK293T

Row | Target | log2 mean competition ratio
83 | PHF5A C75 (UniProt Q7RTV0) | -0.295
84 | POGZ C1267 (UniProt Q7Z3K3) | 0.0583
85 | PML C204 (UniProt P29590) | 0.31
86 | POLR1A C1304 (UniProt O95602) | -0.39
87 | PIK3R2 C50 (UniProt O00459) | 0.118
88 | PHKG2 C188 (UniProt P15735) | 0.0678
89 | POLR1F C47 | 0.178
90 | POLA1 C1180 (UniProt P09884) | 0.00817
91 | PMPCB C419 (UniProt O75439) | 0.878
92 | POLR2A C1159 | 0.0302
93 | PIKFYVE C1970 (UniProt Q9Y2I7) | 0.276
94 | PKN2 C338 (UniProt Q16513) | 0.0376
95 | PKM C358 | -0.109
96 | PLOD1 C680 (UniProt Q02809) | 0.579
97 | POLE C747 (UniProt Q07864) | 0.00854
98 | PMS1 C243 (UniProt P54277) | 0.275
99 | PLEKHH2 C257 (UniProt E5RGK1) | 0.409
100 | PLAA C631 (UniProt Q9Y263) | -0.204
101 | PHKB C76 (UniProt Q93100) | -0.312

Row | Target | log2 mean competition ratio
102 | PIAS2 C454 (UniProt O75928) | -0.17
103 | PLAT C419 | 0.225
104 | POLM C222 | -0.154
105 | PITRM1 C780 (UniProt Q5JRX3) | 0.144
106 | PKM C49 | -0.0313
107 | PHYH C205 (UniProt O14832) | 0.0506
108 | PIAS2 C425 (UniProt O75928) | -0.222
109 | PI4KB C435 (UniProt Q9UBF8) | -0.111
110 | PM20D2 C30 (UniProt Q8IYS1) | 0.269
111 | PIGH C11 (UniProt Q14442) | 0.183
112 | PLAA C193 (UniProt Q9Y263) | -0.275
113 | PHF23 C381 (UniProt Q9BUL5) | 0.0955
114 | POLK C681 (UniProt Q9UBT6) | -0.278
115 | PLEKHA7 C972 (UniProt Q6IQ23) | 0.0734
116 | PITX2 C152 | 0.338
117 | PI4KA C19 (UniProt P42356) | 0.287
118 | PIK3C2B C429 (UniProt O00750) | -0.295
119 | POLR1A C746 (UniProt O95602) | -0.0249
